Results: publication PMC5736350
Results are given in words; binding and its absence hold for the method and conditions named.

The chains behind the UniProt entries cited, without tags or fusion partners. Where a name states a change or a piece, a line headed by the entry shows the natural chain unless it says otherwise.
UniProt Q99638: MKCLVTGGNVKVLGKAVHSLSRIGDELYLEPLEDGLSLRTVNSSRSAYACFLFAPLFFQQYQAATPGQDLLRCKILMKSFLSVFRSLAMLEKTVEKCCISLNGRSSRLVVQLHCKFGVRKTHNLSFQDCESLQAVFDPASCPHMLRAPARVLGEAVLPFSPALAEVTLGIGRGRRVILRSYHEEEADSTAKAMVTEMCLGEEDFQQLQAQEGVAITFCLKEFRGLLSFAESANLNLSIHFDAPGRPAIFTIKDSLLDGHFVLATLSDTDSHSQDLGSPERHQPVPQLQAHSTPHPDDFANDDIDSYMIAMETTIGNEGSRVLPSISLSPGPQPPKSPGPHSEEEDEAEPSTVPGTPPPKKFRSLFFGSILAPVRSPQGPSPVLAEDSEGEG
UniProt P53350: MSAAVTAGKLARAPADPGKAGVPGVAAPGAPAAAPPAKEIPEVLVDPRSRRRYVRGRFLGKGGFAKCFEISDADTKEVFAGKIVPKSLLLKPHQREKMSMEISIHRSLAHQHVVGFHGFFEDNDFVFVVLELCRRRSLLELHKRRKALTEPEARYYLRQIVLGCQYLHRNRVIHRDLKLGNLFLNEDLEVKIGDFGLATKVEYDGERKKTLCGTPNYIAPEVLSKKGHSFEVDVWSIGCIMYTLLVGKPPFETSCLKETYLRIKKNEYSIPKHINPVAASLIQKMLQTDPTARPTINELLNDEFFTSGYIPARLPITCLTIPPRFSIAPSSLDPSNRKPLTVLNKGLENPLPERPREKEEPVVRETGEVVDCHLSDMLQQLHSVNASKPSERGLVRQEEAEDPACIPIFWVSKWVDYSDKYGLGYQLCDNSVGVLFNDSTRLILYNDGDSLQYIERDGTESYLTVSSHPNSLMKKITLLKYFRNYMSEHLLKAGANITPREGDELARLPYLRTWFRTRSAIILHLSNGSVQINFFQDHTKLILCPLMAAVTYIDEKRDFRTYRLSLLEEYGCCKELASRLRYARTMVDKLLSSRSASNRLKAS

Assays:
[1] = biological target: GST-RAD9 (3A)-T292A C-terminus (a.a. 266-391) (human) (UniProt Q99638); experiment: condition: 4 pmol PLK1 with 30 pmol GST-RAD9 in 15 µl; pull-down; GST-RAD9 (3A) (30 pmol) pre-incubated with or without CDK2-Cyclin A2 (0.5 pmol) in 15 µl kinase buffer (50 mM HEPES pH 7.4, 10 mM MgCl2, 1 mM DTT, ATP, 0.1% Triton X-100) at 30 C for 30 min, then with 4 pmol PLK1 (30 C 5 min, 4 C 30 min); captured with GSH-beads 30 min at 4 C; anti-PLK1 blot; both purified
[2] = biological target: GST-RAD9 (3A) C-terminus (a.a. 266-391), not treated with CDK2-Cyclin A2 (human) (UniProt Q99638); experiment: as above

PLK1, recombinant (Polo-Like-Kinase1) (from UniProt P53350 1-603) (enzyme)
binding [1]: no binding
binding [2]: no binding
